# According to patent US20120321632A1:
# These are yes or no findings as the source states them, for the method shown. Some results given as binding are weak or reduced against the parent protein; the word gives no strength.
# B1: HE06.642 (Novartis, WO2008/22295; Human Engineered antibody) (antibody, V domains shown)
# VH: EVQLVESGGGLVQPGGSLRLSCAVSGFTFSSYGMSWVRQAPGKGLEWVATVSSGGTYTYYPDSVKGRFTISRDNSKNTLYLQMNSLRAEDTAVYYCARHRGNYYATYYYAMDYWGQGTLVTVSS
# VL: DIVLTQSPDSLAVSLGERATINCKASKSVSTSGYTYMHWYQQKPGQPPKLLIYLASNRESGVPDRFSGSGSGTDFTLTISPVQAEDVATYYCQHSGELPPSFGQGTKLEIKR
# B2: XHA06.642 (Novartis, WO2008/22295) (antibody, V domains shown)
# VH: EVQLVESGGDLVKPGGSLKLSCAVSGFTFSSYGMSWVRQTPDKRLEWVATVSSGGTYTYYPDSVKGRFTISRDNAKNTLYLQMSSLKSEDSAMYYCARHRGNYYATYYYAMDYWGQGTSVTVSS
# VL: DIVLTQSPASLAVSLGQGATISCRASKSVSTSGYTYMHWYQQKPGQPPKLLIYLASNLESGVPARFSGSGSGTDFTLNIHPVEEEDAATYYCQHSGELPPSFGGGTKLEIKR
# Tests used:
# [1] = target: T1, human prolactin receptor (PRLR) on cells (T47D; HEK293 or Ba/F3 stably transfected with human PRLR) (human) (UniProt P16471); experiment: flow cytometry on HEK293 cells stably expressing human PRLR, fixed concentration
# T1 sequence (looked up): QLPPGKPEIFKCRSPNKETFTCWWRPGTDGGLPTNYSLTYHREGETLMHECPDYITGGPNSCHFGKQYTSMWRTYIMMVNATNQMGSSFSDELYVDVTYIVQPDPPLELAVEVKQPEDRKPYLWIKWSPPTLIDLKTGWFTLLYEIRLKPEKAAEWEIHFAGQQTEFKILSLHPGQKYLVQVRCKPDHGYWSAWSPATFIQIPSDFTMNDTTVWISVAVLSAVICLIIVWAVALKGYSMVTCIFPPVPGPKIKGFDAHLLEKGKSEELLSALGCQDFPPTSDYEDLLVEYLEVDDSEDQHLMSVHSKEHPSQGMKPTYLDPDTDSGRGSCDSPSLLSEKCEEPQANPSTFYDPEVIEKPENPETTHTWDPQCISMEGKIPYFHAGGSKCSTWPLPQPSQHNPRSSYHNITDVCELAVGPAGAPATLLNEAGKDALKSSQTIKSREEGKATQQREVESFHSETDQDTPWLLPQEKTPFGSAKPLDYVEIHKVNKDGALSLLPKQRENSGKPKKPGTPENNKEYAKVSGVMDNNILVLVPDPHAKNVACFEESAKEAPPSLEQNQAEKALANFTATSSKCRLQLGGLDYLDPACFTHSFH
# [2] = target: T1, human prolactin receptor (PRLR) on cells (T47D; HEK293 or Ba/F3 stably transfected with human PRLR) (human); experiment: flow cytometry (FACS) on HEK293 cells stably expressing human PRLR, one fixed concentration of 0.37 µg/ml IgG, PE-conjugated goat anti-human IgG, compared with parental HEK293 without PRLR
# [3] = target: T1, human prolactin receptor (PRLR) on cells (T47D; HEK293 or Ba/F3 stably transfected with human PRLR) (human); experiment: statement in Example 7 (T47D cells)
# [4] = target: T2, rat prolactin receptor (PRLR) on rat lymphoma cell line Nb2 (rat) (UniProt P05710); experiment: statement in Example 6 (Nb2-11 cells)
# T2 sequence (looked up): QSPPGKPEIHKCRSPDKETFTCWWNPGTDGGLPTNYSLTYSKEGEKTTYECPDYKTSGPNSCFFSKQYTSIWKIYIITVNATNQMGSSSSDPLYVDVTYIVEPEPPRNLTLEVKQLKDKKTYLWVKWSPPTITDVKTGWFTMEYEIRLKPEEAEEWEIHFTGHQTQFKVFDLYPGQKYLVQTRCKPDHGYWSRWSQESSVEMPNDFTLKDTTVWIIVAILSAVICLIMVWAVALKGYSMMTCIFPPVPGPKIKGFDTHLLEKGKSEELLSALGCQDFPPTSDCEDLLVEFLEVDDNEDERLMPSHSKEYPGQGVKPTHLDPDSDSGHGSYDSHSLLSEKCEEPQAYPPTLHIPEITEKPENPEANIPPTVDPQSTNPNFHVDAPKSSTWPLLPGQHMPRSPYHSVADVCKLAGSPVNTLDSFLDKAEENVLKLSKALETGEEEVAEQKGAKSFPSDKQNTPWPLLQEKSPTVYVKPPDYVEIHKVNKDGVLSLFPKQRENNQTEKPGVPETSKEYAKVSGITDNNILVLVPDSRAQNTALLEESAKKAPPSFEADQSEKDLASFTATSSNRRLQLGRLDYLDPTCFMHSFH
Binder,binding [1],binding [2],binding [3],binding [4]
B1,binds,binds,,
B2,,,binds,binds
